In PubChem BioAssay AID493014 (National Center for Advancing Translational Sciences (NCATS), 2011):
Several values for one entry are separate records, joined by “and”; a condition that tells them apart may be missing. Equal entries are not always repeated. This is one part of the list. These are further read-outs of the screen, such as a control signal, another cell line or another target. No call is given for them. Most of these compounds were active or inconclusive in the main read-out, so they are no random draw. The note in brackets gives the kind of curve behind each potency; many fits are weak.

Assay: qHTS Assay to Find Inhibitors of Chronic Active B-Cell Receptor Signaling
Conditions: ABC-DLBCL IkBa-CBG/CBR reporter, luminescence ratio (green luciferase fused to IkBa over red control in TMD8 lymphoma cells), 4 h
How it was run: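 TMD8 ABC-DLBCL cells carrying doxycycline-inducible green luciferase fused to IkappaBalpha plus unfused red luciferase were exposed to compounds (up to 46 uM) for 4 hrs at 37C. Activity came from the overlap-corrected green/red luminescence ratio.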

[1] = measured here: CBR red luminescence, cell number
[2] = measured here: IkBa-CBG green luminescence

Row | SMILES | AC50 [1] | AC50 [2]
1 | CCC(C)NC(=O)c1c(N)n(/N=C/c2ccccn2)c2nc3ccccc3nc12 (stereo unspecified) | 1.26 µM [falling, full curve, poor fit] | 
2 | O=C(Nc1cccc([N+](=O)[O-])c1)c1ccn[nH]1 | 7.94 µM [falling, partial curve, poor fit] | 
3 | CCN1CCN(c2ccc(S(=O)(=O)N3CCCCC3)cc2NC(=O)c2cccc(C(F)(F)F)c2)CC1 | 18.4 µM [falling, partial curve, poor fit] | 
4 | CCn1ncc(CNC(=O)C2(C)CC2(Br)Br)c1C (stereo unspecified) | 2.31 µM [rising, single point] | 
5 | Cc1ccc(CC(=O)Nc2ccccc2-c2ccccc2)cc1C | 18.4 µM [rising, partial curve, poor fit] | 
6 | CCOC(=O)COc1ccc([N+](=O)[O-])cc1 | 6.51 µM [rising, partial curve, poor fit] | 
7 | COc1ccc(N/C=C/C(=O)c2ccc(Cl)cc2)cc1 | 0.13 µM [rising, full curve] | 
8 | CCCc1cc(=O)n2[nH]c(C)c(-c3ccc(Cl)cc3)c2n1 | 25.1 µM [rising, partial curve] | 25.1 µM [falling, partial curve, poor fit]
9 | CCOC(=O)c1cccc(NC(=O)CC2Oc3ccccc3NC2=O)c1 (stereo unspecified) |  | 20 µM [falling, single point]
10 | CCC(C)C(=O)Nc1nc(C)c(-c2csc(Nc3cc(OC)ccc3OC)n2)s1 (stereo unspecified) | 0.501 µM [falling, partial curve, poor fit] | 
11 | COc1cc(/C=C2/NC(=O)N(Cc3ccccc3F)C2=O)ccc1O | 8.91 µM [falling, partial curve] | 
12 | Cc1ccc(Oc2ncnc(N)c2[N+](=O)[O-])cc1 | 20 µM [falling, single point] | 
13 | CC(NC(=O)COC(=O)c1cc(NS(=O)(=O)c2ccc(Cl)c([N+](=O)[O-])c2)ccc1O)C1CC2CCC1C2 (stereo unspecified) | 16.4 µM [falling, single point] | 23.1 µM [rising, partial curve, poor fit]
14 | COC(=O)c1c(-c2ccc(F)cc2)csc1NC(=O)c1ccco1 | 22.4 µM [rising, single point] | 
15 | Cc1nc2nc(-c3ccc(Cl)cc3)[nH]n2c(=O)c1C | 2.51 µM [falling, full curve, poor fit] | 
16 | O=C(Cc1cccc2ccccc12)Nc1nc2ccccc2[nH]1 | 0.00461 µM [rising, full curve, poor fit] | 
17 | O=C(N/N=C/c1ccccn1)C(=O)N1CCCCCC1 | 22.4 µM [rising, partial curve, poor fit] | 
18 | Cc1cc(OCC(=O)NNC(=S)NC(=O)c2ccc(Br)o2)ccc1Cl | 3.16 µM [rising, full curve, poor fit] | 
19 | O=C(O)CCc1ccc(-c2ccc(Cl)cc2)n1NC(=O)c1ccc(O)cc1 | 12.6 µM [falling, single point] | 
20 | CCC(=O)N1CCc2nc(-c3ccccc3)sc2C1 | 15.8 µM [rising, partial curve, poor fit] | 
21 | O=C(C#Cc1ccccc1)c1ccco1 | 5.62 µM [rising, single point] | 6.31 µM [falling, single point]

Row | SMILES | AC50 [1] | AC50 [2]
22 | CCCc1nnc(NC(=O)CCC(=O)N2CCC(Cc3ccccc3)CC2)s1 | 35.5 µM [rising, single point] | 
23 | O=C1CCC/C1=C/Nc1ccc2c(c1)OCO2 | 20.6 µM [falling, single point] | 
24 | COc1ccc(C(CCNC(C)c2ccccc2)C(C)C)cc1 (stereo unspecified) | 22.4 µM [falling, single point] | 
25 | O=C(CN1CCN(c2cccc(Cl)c2)CC1)Nc1nccs1 |  | 15.8 µM [falling, partial curve, poor fit]
26 | CCC(CC)c1nc(NCCC(=O)O)c2ccccc2n1 | 6.31 µM [rising, single point] | 
27 | CC(NC(=O)Cn1nc(C(F)(F)F)c2c1CCC2)c1ccccc1 (stereo unspecified) | 0.0517 µM [falling, full curve, poor fit] | 
28 | O=[N+]([O-])c1ccc(Nc2nc(NC3CCCCC3)nc(N3CCCC3)n2)cc1 | 2 µM [rising, partial curve, poor fit] | 
29 | C/C=C/C=C\C(=O)Nc1cccc(C2=NOC3(C2)C[C@@H](C(N)=O)N(C(=O)c2cc([N+](=O)[O-])cc([N+](=O)[O-])c2)C3)c1 (stereo partly specified) | 10 µM [falling, partial curve] | 
30 | Nc1ccc(N2CCOCC2)c(Cl)c1 | 14.6 µM [rising, partial curve, poor fit] | 
31 | O=[N+]([O-])c1ccc(N=Cc2ccc(Br)c([N+](=O)[O-])c2)cc1 | 25.9 µM [falling, single point] | 20.6 µM [falling, single point]
32 | Cc1ccccc1NC(=O)/C=C/c1cccc(C(F)(F)F)c1 | 10 µM [falling, partial curve, poor fit] | 
33 | CN(C)c1oc(-c2ccc(OCc3ccccc3)cc2)nc1C#N | 2.59 µM [rising, full curve, poor fit] | 
34 | COc1cc(C(CC(=O)Nc2ccc(Cl)cn2)N2Cc3ccccc3C2=O)cc(OC)c1OC (stereo unspecified) | 0.1 µM [rising, full curve, poor fit] | 
35 | O=C(COC(=O)Cn1cnc2ccccc21)Nc1cccc2c1C(=O)c1ccccc1C2=O | 11.6 µM [falling, partial curve, poor fit] | 
36 | CCc1ccc2oc(=O)cc(CN3CCCCC3)c2c1 | 3.55 µM [rising, single point] | 
37 | NC1=Nc2cccc3cccc1c23 | 11.2 µM [falling, partial curve] | 
38 | Cc1nn(Cc2cccc(C(=O)NC34CC5CC(CC(C5)C3)C4)c2)c(C)c1Br | 29.1 µM [falling, single point] | 
39 | Cc1ccc(NC(=O)Cn2c(=O)oc3ccccc32)cc1Cl | 12.6 µM [falling, partial curve, poor fit] and 2.24 µM [falling, partial curve, poor fit] | 
40 | CCn1c(=O)n(CC(=O)NC2CCCC(C)C2C)c(=O)c2ccccc21 (stereo unspecified) | 2.82 µM [falling, partial curve, poor fit] | 
41 | CCN(N=Nc1cccc([N+](=O)[O-])c1)c1cccc([N+](=O)[O-])c1 | 0.326 µM [rising, full curve, poor fit] | 
42 | CC(C)(C)OC(=O)[C@H](Cc1ccccc1)NC(=O)c1nc[nH]c1C(=O)NC1CCN(C(=O)OC(C)(C)C)CC1 | 35.5 µM [falling, single point] | 

Compounds listed so far that have a Cl atom, in the order listed:
Row | SMILES | AC50 [1] | AC50 [2]
7 | COc1ccc(N/C=C/C(=O)c2ccc(Cl)cc2)cc1 | 0.13 µM [rising, full curve] | 
8 | CCCc1cc(=O)n2[nH]c(C)c(-c3ccc(Cl)cc3)c2n1 | 25.1 µM [rising, partial curve] | 25.1 µM [falling, partial curve, poor fit]
13 | CC(NC(=O)COC(=O)c1cc(NS(=O)(=O)c2ccc(Cl)c([N+](=O)[O-])c2)ccc1O)C1CC2CCC1C2 (stereo unspecified) | 16.4 µM [falling, single point] | 23.1 µM [rising, partial curve, poor fit]
15 | Cc1nc2nc(-c3ccc(Cl)cc3)[nH]n2c(=O)c1C | 2.51 µM [falling, full curve, poor fit] | 
18 | Cc1cc(OCC(=O)NNC(=S)NC(=O)c2ccc(Br)o2)ccc1Cl | 3.16 µM [rising, full curve, poor fit] | 
19 | O=C(O)CCc1ccc(-c2ccc(Cl)cc2)n1NC(=O)c1ccc(O)cc1 | 12.6 µM [falling, single point] | 
25 | O=C(CN1CCN(c2cccc(Cl)c2)CC1)Nc1nccs1 |  | 15.8 µM [falling, partial curve, poor fit]
30 | Nc1ccc(N2CCOCC2)c(Cl)c1 | 14.6 µM [rising, partial curve, poor fit] | 
34 | COc1cc(C(CC(=O)Nc2ccc(Cl)cn2)N2Cc3ccccc3C2=O)cc(OC)c1OC (stereo unspecified) | 0.1 µM [rising, full curve, poor fit] | 
39 | Cc1ccc(NC(=O)Cn2c(=O)oc3ccccc32)cc1Cl | 12.6 µM [falling, partial curve, poor fit] and 2.24 µM [falling, partial curve, poor fit] | 

Continuation:

Row | SMILES | AC50 [1] | AC50 [2]
43 | O=C(c1cnn2c(C(F)F)cc(-c3ccccc3)nc12)N1CCCCC1c1cccnc1 (stereo unspecified) | 28.2 µM [rising, partial curve, poor fit] | 
44 | CCOc1cccc(-c2nnc(SCC(=O)Nc3cc(C)ccc3OC)n2N)c1 | 35.5 µM [falling, single point] | 
45 | CCCCC(=O)NC(=S)NNC(=O)c1ccc(Cl)cc1Cl | 14.1 µM [rising, single point] | 
46 | COc1ccccc1-n1c([S-])c(C(=O)Nc2ccccc2C(F)(F)F)[n+]2ccc(C(=O)NCCO)cc12 | 8.91 µM [falling, partial curve, poor fit] | 
47 | COc1ccc(C(=O)NCCCc2nc3ccccc3n2Cc2cc(C)ccc2C)cc1OC | 0.651 µM [rising, full curve, poor fit] | 
48 | CCn1nc(C)c(CN2CCC(C(=O)Nc3cccc(-c4cccc(F)c4)c3)CC2)c1C | 22.4 µM [falling, single point] | 
49 | O=C(CSc1nncn1-c1ccccc1)Nc1c(F)cccc1F | 35.5 µM [falling, single point] | 
50 | Oc1ccccc1-c1n[nH]c(=S)n1Cc1ccccc1 | 2.82 µM [rising, partial curve, poor fit] | 
51 | CCC1CCCCN1C(=O)COC(=O)c1n[nH]c2ccccc12 (stereo unspecified) | 16.4 µM [falling, partial curve, poor fit] | 
52 | CCOC(=O)c1c(C)[nH]c(C)c1C(=O)CSc1nc2ccccc2c(=O)n1-c1ccccc1C | 3.66 µM [rising, single point] | 
53 | COc1ccc(NC(=O)c2ccccc2NC(=O)C2CCCO2)cc1 (stereo unspecified) | 18.4 µM [falling, single point] | 
54 | COc1ccc(C(=O)Nc2nc3ccc(S(C)(=O)=O)cc3s2)cc1OC | 7.94 µM [rising, partial curve] | 
55 | COc1ccccc1-c1cc(C(=O)NCc2ccc(F)cc2)no1 | 5.62 µM [falling, full curve, poor fit] | 
56 | COc1ccc(NN=Nc2ccc([N+](=O)[O-])cc2)cc1 | 1.26 µM [rising, full curve] | 
57 | NC(=O)C(c1ccc(Cl)cc1)c1ccc(Sc2ccc(Cl)cc2)nn1 (stereo unspecified) | 18.4 µM [falling, partial curve, poor fit] | 
58 | CC1=NN(c2cccc([N+](=O)[O-])c2)C(=O)C1 | 0.0891 µM [falling, full curve, poor fit] | 
59 | Cc1occc1C(=O)N/N=C/c1ccc2c(c1)OCO2 | 3.55 µM [falling, partial curve] | 
60 | COc1ccc(N2C(=O)CC(Nc3ccc(F)cc3)C2=O)c([N+](=O)[O-])c1 (stereo unspecified) | 35.5 µM [falling, single point] | 
61 | COc1ccccc1CNCc1cc(Br)ccc1OC | 12.6 µM [falling, single point] | 
62 | CCOC(=O)Cc1csc(NC(=O)/C=C/c2cccc(Br)c2)n1 | 8.91 µM [falling, partial curve, poor fit] | 
